The target in assay [1] is CD44 (human (endogenous in A549)) (UniProt P16070). The assay can be described thus: co-IP; A549 cells with or without 200 ng/ml rhTSG6 for 2 hours; lysates incubated with anti-CD44 (sc-9960) or normal IgG for 16 h at 4 °C, then protein G agarose for 4 h; washed four times with lysis buffer; immunoblot for endogenous TGFβR1 and EGFR. Background: In western blotting, separated proteins are transferred to a membrane and probed.

Chains of the proteins cited; added tags and fusions are not shown. Residues count along the entry.
UniProt P16070, residues 21-742: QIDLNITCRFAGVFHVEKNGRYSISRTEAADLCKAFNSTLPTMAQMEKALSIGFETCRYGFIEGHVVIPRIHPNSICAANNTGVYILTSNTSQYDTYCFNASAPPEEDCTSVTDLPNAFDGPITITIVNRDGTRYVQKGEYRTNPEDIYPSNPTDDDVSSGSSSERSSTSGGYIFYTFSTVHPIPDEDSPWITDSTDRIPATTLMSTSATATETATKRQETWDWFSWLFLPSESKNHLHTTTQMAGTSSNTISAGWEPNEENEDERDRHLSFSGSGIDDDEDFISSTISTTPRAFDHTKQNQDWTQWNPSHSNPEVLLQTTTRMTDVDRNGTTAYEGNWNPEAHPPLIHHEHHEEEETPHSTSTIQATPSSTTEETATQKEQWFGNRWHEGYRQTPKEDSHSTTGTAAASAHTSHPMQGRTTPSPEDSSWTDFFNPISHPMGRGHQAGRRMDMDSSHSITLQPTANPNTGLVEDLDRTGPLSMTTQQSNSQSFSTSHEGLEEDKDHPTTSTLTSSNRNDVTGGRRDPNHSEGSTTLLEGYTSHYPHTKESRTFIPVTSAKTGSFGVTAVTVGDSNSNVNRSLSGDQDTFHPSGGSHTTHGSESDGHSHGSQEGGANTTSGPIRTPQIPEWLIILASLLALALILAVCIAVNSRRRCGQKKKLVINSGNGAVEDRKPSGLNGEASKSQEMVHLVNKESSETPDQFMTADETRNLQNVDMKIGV
UniProt P98066, residues 18-277: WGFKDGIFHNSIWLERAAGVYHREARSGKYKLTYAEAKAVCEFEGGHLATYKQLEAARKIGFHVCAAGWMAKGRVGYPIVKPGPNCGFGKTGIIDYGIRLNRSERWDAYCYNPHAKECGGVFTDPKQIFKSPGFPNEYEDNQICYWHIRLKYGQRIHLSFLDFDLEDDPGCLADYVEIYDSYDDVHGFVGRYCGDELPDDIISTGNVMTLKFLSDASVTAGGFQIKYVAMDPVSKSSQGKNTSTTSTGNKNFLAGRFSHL

Assay [2] has the same target. As to the kind of experiment: co-IP; A549 cells treated with 200 ng/ml rhTSG6 for 2 hours; lysates incubated with anti-CD44 (sc-9960) or normal IgG for 16 h at 4 °C, then protein G agarose for 4 h; washed four times with lysis buffer (0.5% Triton X-100, 20 mM Tris pH 7.5); immunoblot for TSG6; only the binder purified.

No constants are given. Whether binding was seen depends on the method and setting. In cells and extracts the contact can be indirect. Some binding calls cover weakened binding; strength is not graded here.

Turning to “EGFR (from UniProt P00533 25-1210) (receptor)”, the binding result in assay [1] is “binds”.

For the molecule “recombinant human TSG6 (rhTSG6) (from UniProt P98066 18-277) (ligand)”, the binding entry in assay [2] is recorded as “binds”.

B1: TGFβR1 (receptor, UniProt P36897 34-503)
chain: LQCFCHLCTKDNFTCVTDGLCFVSVTETTDKVIHNSMCIAEIDLIPRDRPFVCAPSSKTGSVTTTYCCNQDHCNKIELPTTVKSSPGLGPVELAAVIAGPVCFVCISLMLMVYICHNRTVIHHRVPNEEDPSLDRPFISEGTTLKDLIYDMTTSGSGSGLPLLVQRTIARTIVLQESIGKGRFGEVWRGKWRGEEVAVKIFSSREERSWFREAEIYQTVMLRHENILGFIAADNKDNGTWTQLWLVSDYHEHGSLFDYLNRYTVTVEGMIKLALSTASGLAHLHMEIVGTQGKPAIAHRDLKSKNILVKKNGTCCIADLGLAVRHDSATDTIDIAPNHRVGTKRYMAPEVLDDSINMKHFESFKRADIYAMGLVFWEIARRCSIGGIHEDYQLPYYDLVPSDPSVEEMRKVVCEQKLRPNIPNRWQSCEALRVMAKIMRECWYANGAARLTALRIKKTLSQLSQQEGIKM
B1: the binding result in assay [1] is on record as “binds”.

Values taken from article PMC12374808.
